According to PubChem BioAssay AID1347076 (National Center for Advancing Translational Sciences (NCATS), 2019):
The campaign covered roughly 400,000 compounds. About 13,000 (3.2%) were called active. Inconclusive results, whose numbers are uncertain, are shown with a selection of clear calls. The call rests on the fitted dose curve; in most records, active means well fitted cell-killing curve with a large enough effect; inconclusive means small, poorly fitted or top-dose-only effect, or effect the other way; inactive means flat fitted curve, though single readings scatter. Potencies of inconclusive entries are doubtful fits and often do not repeat.

experiment: qHTS assay for MDR1-selective chemotherapeutics: Primary screen using the drug-selected MDR subline cells KB-V1; details: KB-V1 MDR cells viability, CellTiter-Glo, 72 h; activity change, negative = cytotoxicity: at 46.1 µM (top of the series); further: nearly all actives have a fitted effect of over 60% in size
Outline: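 KB-V1 MDR subline cells in DMEM (phenol-red free, 10% FBS) exposed to compounds in qHTS concentration series for 72 h at 37 degrees C. Viability read by CellTiter-Glo luminescence; concentration-effect curves fitted after normalization and correction.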
On the % scale 0 is the no-effect control and ±100 the full control effect; potency means the concentration at half of the fitted maximal effect.

SMILES	Potency	activity change, negative = cytotoxicity
COc1ccc(-c2c(-c3ccc4c(c3)OCO4)noc2-c2ccsc2)cn1	inconclusive: 16.4 µM [cytotoxic, single point]	–
Cc1ccc(NC(=O)CNCC2CCCCC2)cc1S(=O)(=O)N(C)C	inconclusive: 5.17 µM [cytotoxic, partial curve]	–
O=C(Cc1ccc(Br)cc1)NNC(=O)c1cccs1	inactive	–
Cc1oc(-c2ccccc2F)nc1CN1CCC(C(=O)NC2CCCc3ccccc32)CC1 (stereo unspecified)	active: 8.2 µM	–
O=C(c1sc2ccccc2c1Cl)N(Cc1ccco1)C1CCS(=O)(=O)C1 (stereo unspecified)	inconclusive: 4.11 µM [cytotoxic, partial curve, poor fit]	–
COc1ccc(NS(=O)(=O)c2cc(NC(=O)/C=C/c3cccs3)ccc2N2CCOCC2)cc1	inconclusive: 9.2 µM [cytotoxic, partial curve]	–
CCOc1ccc(NC(=O)NNC(=O)c2ccc3ccccc3c2O)cc1	inconclusive: 29.1 µM [rising, single point]	–
O=C(NC(=S)NNC(=O)c1ccccc1O)c1ccc(F)cc1	inactive	–
COc1ccc(N(C)S(=O)(=O)c2ccc(C)cc2)c([N+](=O)[O-])c1	inconclusive: 18.4 µM [cytotoxic, single point]	–
COc1ccc(CCN(C)C(=S)Nc2cccc(C)c2)cc1OC	inconclusive: 16.4 µM [cytotoxic, partial curve]	–
Cc1ccc(C)c(NC(=O)CN(C)C(=O)c2ccc(COc3ccccc3)cc2)c1	inactive	–
COc1ccc(NC(=O)CSc2n[nH]c(C(C)C)n2)c([N+](=O)[O-])c1	inconclusive: 20.6 µM [cytotoxic, single point]	–
CC(C)(C)c1ccc(C(=O)CC(Sc2ccc(Cl)cc2)C(=O)O)cc1 (stereo unspecified)	inconclusive: 29.1 µM [cytotoxic, single point]	–
COc1ccc(N2CC(C(=O)N/N=C/c3cccs3)CC2=O)cc1 (stereo unspecified)	inactive	–
Cc1cc(C(=O)NN=Cc2ccc(-c3ccc(F)cc3)o2)c(C)o1	inactive	–
Cc1ccc(OCC(=O)c2cc(C)n(CC(F)(F)F)c2C)c([N+](=O)[O-])n1	inconclusive: 29.1 µM [cytotoxic, single point]	–
COc1ccc(CNS(=O)(=O)c2cc(-c3cc(C)no3)ccc2C(C)C)cc1	active: 13 µM	–
COc1ccc(N2CCN(C3CCCN(C(=O)c4ccoc4)C3)CC2)cc1 (stereo unspecified)	inconclusive: 18.4 µM [cytotoxic, single point]	–
O=C(NCCC1=CCCCC1)c1ccc2c(c1)N(Cc1ccc(Cl)cc1)C(=O)c1ccccc1S2=O (stereo unspecified)	inconclusive: 5.17 µM [rising, partial curve, poor fit]	–
Cc1ccc(C(=O)C(C)Sc2nnc(N)s2)cc1 (stereo unspecified)	inactive	–
COc1ccc(Cl)cc1S(=O)(=O)N1CCCC(C(=O)NCCc2ccccc2)C1 (stereo unspecified)	inconclusive: 4.61 µM [cytotoxic, partial curve]	–
C[C@@H](NC(=O)c1[nH]cnc1C(=O)Nc1ccc(Cl)cc1)c1ccccc1	inconclusive: 25.9 µM [cytotoxic, single point]	–
COc1ccc(-c2cc(C(F)(F)F)nc(NC3CCCC3)n2)cc1OC	inconclusive: 8.2 µM [cytotoxic, partial curve, poor fit]	–
COc1ccc(NC(=S)/N=C(\N)Nc2nc(C)c3ccccc3n2)cc1	inconclusive: 5.17 µM [cytotoxic, full curve, poor fit]	–

A different layout for 4 compounds above.
O=C(Cc1ccc(Br)cc1)NNC(=O)c1cccs1
  Potency: inactive
O=C(NC(=S)NNC(=O)c1ccccc1O)c1ccc(F)cc1
  Potency: inactive
CC(C)(C)c1ccc(C(=O)CC(Sc2ccc(Cl)cc2)C(=O)O)cc1 (stereo unspecified)
  Potency: inconclusive: 29.1 µM [cytotoxic, single point]
Cc1ccc(C(=O)C(C)Sc2nnc(N)s2)cc1 (stereo unspecified)
  Potency: inactive

Next compounds.

SMILES	Potency	activity change, negative = cytotoxicity
O=C(Cn1c(SCC(=O)N2CCc3ccccc3C2)nc2ccccc21)NC1CCCC1	inactive	–
N#Cc1c(N)n(C2OC(CO)C(O)C2O)c2ncnc(N)c12 (stereo unspecified)	active: 0.206 µM	–
CCOC(=O)c1cccc(NC(=O)c2cnc(N3CCCCC3)c3ccccc23)c1	inactive	–
COc1ccc(-n2c(=O)c3c(c4cc(OC)ccc4n3C)n(C)c2=O)cc1	inactive	–
COc1ccc(-c2cc(C(=O)NCC(c3ccco3)N(C)C)c3ccccc3n2)cc1OC (stereo unspecified)	inconclusive: 3.26 µM [cytotoxic, full curve]	–
O=c1c2cc(N3CCOCC3)ccc2[nH]c(=S)n1CCCN1CCCCCC1	inactive	–
CNC(=O)CN1C(=O)c2cccc3cccc1c23	inactive	–
Cc1nnc(-c2ccccc2)[nH]c1=O	inconclusive: 20.6 µM [rising, single point]	–
CSc1ccc(CN2CCc3c([nH]c4ccccc34)C2)cc1	inconclusive: 29.1 µM [cytotoxic, single point]	–
CC(C)C(=O)N1CCN(c2ccccc2NC(=O)c2cc([N+](=O)[O-])ccc2N2CCOCC2)CC1	inconclusive: 16.4 µM [cytotoxic, partial curve, poor fit]	–
CCOC(=O)CNC=C(C(=O)OCC)C(=O)OCC	inactive	–
S=C(NCCc1ccccc1)Nc1ccccc1Cl	inconclusive: 29.1 µM [cytotoxic, single point]	–
COc1nc(-c2cnccn2)sc1C	inconclusive: 29.1 µM [rising, single point]	–
CC(C)(C)OC(=O)N(CCc1ccccc1)Cc1ccccc1OCc1cccc(NC(=O)C2CC2)c1	inactive	–
CCn1c(SC)nnc1-c1sc2cc(Cl)ccc2c1Cl	inconclusive: 18.4 µM [cytotoxic, single point]	–
CCN(Cc1ccc(Cl)s1)C(=O)c1cccc(OCc2c(C)noc2C)c1	active: 5.8 µM	–
COc1ccc(-c2noc(CCC(=O)N3CCN(c4cccc(C(F)(F)F)c4)CC3)n2)cc1	inconclusive: 20.6 µM [cytotoxic, partial curve]	–
O=C(COc1ccccc1F)Nc1ccc(Cl)c(-c2nc3ccccc3[nH]2)c1	inconclusive: 18.4 µM [cytotoxic, partial curve]	–
CCOc1ccccc1NC(=O)C(OC(=O)c1ccc(N(C)C)cc1)c1ccccc1 (stereo unspecified)	active: 9.2 µM	–
O=S(=O)(c1ccccc1)N1CCC(O)(CN2CCN(c3ccccc3)CC2)CC1	inactive	–
Cc1ccc(S(=O)(=O)Nc2ccc3c(c2)c2c(n3S(=O)(=O)c3ccc(C)cc3)CCCC2=O)cc1	inconclusive: 8.2 µM [cytotoxic, partial curve]	–
Cc1ccc(NC(=S)NC(C)CCc2ccccc2)cc1C (stereo unspecified)	inconclusive: 29.1 µM [cytotoxic, single point]	–
Nc1ccn([C@@H]2O[C@H](C(=O)N(CCC3=CCCCC3)CC3CC3)[C@@H](O)[C@H]2O)c(=O)n1	inconclusive: 32.6 µM [cytotoxic, single point]	–
COc1cc(OC)c(OC)cc1/C=N/NC(=O)CCc1c(C)n[nH]c1C	inactive	–

SMILES	Potency	activity change, negative = cytotoxicity
CCOC(=O)c1cc(NC(=O)c2ccc(OC)cc2)c(=O)n2c1oc1ccc(Cl)cc12	inconclusive: 29.1 µM [rising, single point]	–
C/C(=N\Nc1nc(-c2cc(C)ccc2C)cs1)c1cc2ccccc2oc1=O	inactive	–
CCOC(=O)[C@]12CCC=C1N(Cc1cccc3ccccc13)C(=O)[C@H](CC(=O)NCc1cccs1)C2	inconclusive: 13 µM [cytotoxic, single point]	–
CN1CCC(Oc2ccccc2Sc2ccccc2)CC1	inconclusive: 14.6 µM [cytotoxic, partial curve]	–
CC(=NO)C1CCC2C3CCC4CC(=NO)CCC4(C)C3C(C)(O)CC12C (stereo unspecified)	active: 11.6 µM	–
O=c1[nH]c2ccc(NCc3ccccc3F)cc2[nH]1	inactive	–
O=C(N/N=C/c1cccc(OC(=O)c2cccc(Br)c2)c1)c1cccnc1	inactive	–
Cc1ccc(N2CC(NS(=O)(=O)c3cccs3)CC2=O)cc1 (stereo unspecified)	inconclusive: 29.1 µM [cytotoxic, single point]	–
COCCN1C[C@@H](CO)O[C@@H](n2cnc3c(NC4CCCC4)ncnc32)C1	inconclusive: 1.46 µM [cytotoxic, full curve]	–
C=C(C)CN(CC)C(=O)CSc1nc2ncc(Cl)cc2[nH]1	inconclusive: 29.1 µM [cytotoxic, single point]	–
COc1ccc(NC(=O)COc2ccc(N(C)S(=O)(=O)c3ccc(C)cc3)cc2)cc1	inconclusive: 10.3 µM [cytotoxic, partial curve]	–
Cc1cccc(C)c1NC(=O)c1cc2c(=O)c3ccccc3oc2nc1C(F)(F)F	active: 2.06 µM	–
CCc1ccc(C(=O)/C=C/c2cnn(C)c2C)s1	inactive	–
CCCN(CC(=O)Nc1ccccc1C)C(=O)C1CCN(C(=O)Nc2ccccc2)CC1	–	inconclusive: -10.7%
O=C(COC(=O)/C=C/c1cccs1)Nc1nc(-c2cccc(Br)c2)cs1	inconclusive: 0.0073 µM [rising, full curve, poor fit]	–
CC(OC(=O)CCc1nc2ccccc2c(=O)[nH]1)C(=O)c1ccc(C(C)(C)C)cc1 (stereo unspecified)	inconclusive: 18.4 µM [cytotoxic, partial curve]	–
COC(=O)c1cccc(C23CC4(C2)[C@H](CN(C)[C@@H]4c2ccccc2)C3c2ccc(C(F)(F)F)cc2)c1 (stereo partly specified)	inactive	–
Cc1ccc(NC(=O)C2CCC(CNS(=O)(=O)c3ccc4c(c3)CCCC(=O)N4)CC2)c(C)c1 (stereo unspecified)	inactive	–
CC(C)COC(=O)N(C)C[C@H]1OCc2cnnn2CCCC(=O)N([C@H](C)CO)C[C@H]1C	inconclusive: 29.1 µM [rising, single point]	–
O=C(CSc1nnc(COc2ccc(Cl)cc2)o1)N1CCCCC1	inconclusive: 23.1 µM [cytotoxic, partial curve, poor fit]	–
O=C(Cn1cnc2ccccc21)Nc1cccc([N+](=O)[O-])c1	inactive	–
Cc1cn2c(=O)cc(COc3ccccc3NC(=O)c3ccc(Cl)cc3)nc2s1	inactive	–
Oc1cc2ccccc2cc1-c1n[nH]c(=S)o1	inactive	–
